Data published in patent publication US7511074B2, “Tetrafluorobenzyl derivatives and pharmaceutical composition for preventing and treating acute and chronic neurodegenerative diseases in central nervous system containing the same” (AmKor Pharma, Inc., priority 2002, dated 2009).
Some of these results come from one statement about several compounds together. Some compounds share one range, which may span the group rather than tell each member.

Tested on: Mouse cortical cell cultures
Test: NMDA-induced excitotoxicity in mixed cortical cell cultures (LDH release)
Type: cell-based
Conditions: 300 μM NMDA for 10 min, co-treatment; LDH release 24 hr later
Procedure: (§1) Mouse cortical cell cultures (DIV 12-14) were exposed to 300 μM NMDA for 10 min, alone or with inclusion of 3-300 μM 2-Hydroxy-TTBA. Neuronal death was analyzed 24 hr later by measuring levels of LDH released into the bathing medium, mean ±SEM (n=9-12 culture wells per condition), scaled to mean LDH efflux value 24 hr after sham wash (=0) and continuous exposure to 500 μM NMDA (=100) that causes near complete neuronal death. *, Significant difference from the vehicle control, p<0.05 using ANOVA and Student-Neuman-Keuls' test.
as §1, with “alone (□)” for “alone”, “2-Hydroxy-TTS (●), 2-Hydroxy-TTA (◯), 2-Ethan-TTBA (▾), 2-Propan-TTBA (∇), or 2-Cyclohexan-TTBA (▪).” for “2-Hydroxy-TTBA.”, “(=100).” for “(=100) that causes near complete neuronal death.”
For mixed neuron-glia culture, mouse cerebral cortices were removed from brains of the 14-16 day-old-fetal mice (E14-16), gently triturated and plated on 24 well plates (2×10^5 cells/plate) precoated with 100 μg/ml poly-D-lysine and 4 μg/ml laminine. Cultures were maintained at 37° C. in a humidified 5% CO2 atmosphere. Plating media consist of Eagles minimal essential media (MEM, Earles salts, supplied glutamine-free) supplemented with 5% horse serum, 5% fetal bovine serum, 26.5 mM bicarbonate, 2 mM glutamine, and 21 mM glucose.
After 7-8 days in vitro (DIV 7-8), 10 μM cytosine arabinofuranoside (Ara-C) was included to halt overgrowth of glia. The drug treatment was carried on DIV 12-15 cortical cell culture. Overall neuronal cell injury was assessed by measuring amount of lactate dehydrogenase (LDH) released into the bathing medium 24 hr after neurotoxic insults as previously described [Koh and Choi, J Neurosci Methods 20:83-90, 1987].
At DIV 13-15 in mixed neuron-glia culture as shown in Example 1, cortical cell cultures were exposed to 300 μM NMDA for 10 min, alone or with 3-300 μM 2-Hydroxy-TTBA, 10-300 μM 2-Hydroxy-TTS, 30-300 μM 2-Hydroxy-TTA, 30-300 μM 2-Ethan-TTBA, 10-300 μM 2-Prppan-TTBA, or 10-300 μM 2-Cyclohexan-TTBA. Neuronal death was assessed 24 hr later by measuring amount of LDH released into the bathing medium. *, Significant difference from the vehicle control, p<0.05 using ANOVA and Student-Neuman-Keuls' test.

Row | Compound | doses at which NMDA-induced neuronal death was blocked/prevented [µM]
1 | O=C(O)c1cc(NCc2c(F)c(F)c(C(F)(F)F)c(F)c2F)ccc1OC(=O)C1CCCCC1 [2-Cyclohexan-TTBA, 2-cyclohexanecarbonyloxy-5-(2,3,5,6-tetrafluoro-4-trifluoromethylbenzylamino)benzoic acid] | 30 to 300
2 | CC(=O)Oc1ccc(NCc2c(F)c(F)c(C(F)(F)F)c(F)c2F)cc1C(=O)O [2-Ethan-TTBA, 2-ethanoyloxy-5-(2,3,5,6-tetrafluoro-4-trifluoromethylbenzylamino)benzoic acid] | 30 to 300
3 | NC(=O)c1cc(NCc2c(F)c(F)c(C(F)(F)F)c(F)c2F)ccc1O [2-Hydroxy-TTA, 2-hydroxy-5-(2,3,5,6-tetrafluoro-4-trifluoromethylbenzylamino)benzamide] | 30 to 300
4 | O=S(=O)(O)c1cc(NCc2c(F)c(F)c(C(F)(F)F)c(F)c2F)ccc1O [2-Hydroxy-TTS, 2-hydroxy-5-(2,3,5,6-tetrafluoro-4-trifluoromethylbenzylamino)benzene sulfonic acid] | 30 to 300
5 | CCC(=O)Oc1ccc(NCc2c(F)c(F)c(C(F)(F)F)c(F)c2F)cc1C(=O)O [2-Propan-TTBA, 2-propanoyloxy-5-(2,3,5,6-tetrafluoro-4-trifluoromethylbenzylamino)benzoic acid] | 30 to 300
